Laboratory results as given in article PMC11618752.
No constants are given. Whether binding was seen depends on the method and setting. For some assays here: In cells and extracts the contact can be indirect. Some results given as binding are weak or reduced against the parent protein; the word gives no strength.

Chains of the proteins cited; added tags and fusions are not shown. Lines headed by an entry give the natural chain unless they say otherwise; changes in a name come on top.
UniProt Q9BRJ7: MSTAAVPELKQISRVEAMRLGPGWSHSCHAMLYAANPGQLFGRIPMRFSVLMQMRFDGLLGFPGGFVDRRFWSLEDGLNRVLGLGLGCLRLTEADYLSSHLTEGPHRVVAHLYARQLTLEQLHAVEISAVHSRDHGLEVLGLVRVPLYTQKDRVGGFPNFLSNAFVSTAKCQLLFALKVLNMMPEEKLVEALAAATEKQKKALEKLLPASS
UniProt O14980: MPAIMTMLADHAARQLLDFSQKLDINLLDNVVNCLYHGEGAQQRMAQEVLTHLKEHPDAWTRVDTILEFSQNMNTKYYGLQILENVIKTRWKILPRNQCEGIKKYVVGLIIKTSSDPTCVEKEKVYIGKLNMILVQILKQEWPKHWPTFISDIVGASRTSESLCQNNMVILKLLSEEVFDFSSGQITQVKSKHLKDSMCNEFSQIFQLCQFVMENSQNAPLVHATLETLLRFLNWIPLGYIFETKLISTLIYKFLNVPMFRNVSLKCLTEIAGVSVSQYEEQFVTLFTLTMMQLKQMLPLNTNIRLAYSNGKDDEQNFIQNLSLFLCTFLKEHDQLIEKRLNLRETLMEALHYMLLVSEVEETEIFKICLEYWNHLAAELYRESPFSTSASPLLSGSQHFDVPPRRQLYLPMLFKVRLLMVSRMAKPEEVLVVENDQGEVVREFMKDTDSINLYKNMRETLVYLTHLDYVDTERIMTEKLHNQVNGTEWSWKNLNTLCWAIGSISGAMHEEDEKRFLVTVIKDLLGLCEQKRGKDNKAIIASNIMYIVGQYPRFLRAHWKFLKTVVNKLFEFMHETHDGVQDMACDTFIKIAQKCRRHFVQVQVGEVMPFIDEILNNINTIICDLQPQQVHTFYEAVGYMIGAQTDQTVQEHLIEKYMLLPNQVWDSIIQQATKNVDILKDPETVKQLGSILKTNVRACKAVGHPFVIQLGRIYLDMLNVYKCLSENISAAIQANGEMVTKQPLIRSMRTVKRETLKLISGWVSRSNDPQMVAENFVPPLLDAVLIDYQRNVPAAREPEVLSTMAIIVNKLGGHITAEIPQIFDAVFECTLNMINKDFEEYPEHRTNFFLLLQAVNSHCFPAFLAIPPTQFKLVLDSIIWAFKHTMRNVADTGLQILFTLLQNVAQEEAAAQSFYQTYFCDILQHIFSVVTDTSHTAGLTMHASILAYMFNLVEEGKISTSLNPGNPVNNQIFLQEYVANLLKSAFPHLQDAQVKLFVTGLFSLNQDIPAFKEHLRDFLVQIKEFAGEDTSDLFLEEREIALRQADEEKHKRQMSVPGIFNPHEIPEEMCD

Key:
[1] = target: Flag-tagged wild-type TIRR (UniProt Q9BRJ7); test: co-IP; ectopically expressed E3 ubiquitin ligases with Flag-TIRR; whole-cell lysates of 293T cells transfected with Myc-DTX3L and Flag-TIRR (Fig. 4d); other ligases in Supplementary Fig. 3a-c, legends not shown
[2] = target: XPO1 protein, recombinant (UniProt O14980); test: ITC; XPO1 (~20 μM, 0.2 ml) in the cell, NES peptide (~200 μM) in the syringe; 25 °C; first injection 0.4 μl, then 19 injections of 2 μl; MicroCal iTC200; both purified

B1: TRIM56, ectopically expressed (enzyme, UniProt Q9BRZ2 1-755)
chain: MVSHGSSPSLLEALSSDFLACKICLEQLRAPKTLPCLHTYCQDCLAQLADGGRVRCPECRETVPVPPEGVASFKTNFFVNGLLDLVKARACGDLRAGKPACALCPLVGGTSTGGPATARCLDCADDLCQACADGHRCTRQTHTHRVVDLVGYRAGWYDEEARERQAAQCPQHPGEALRFLCQPCSQLLCRECRLDPHLDHPCLPLAEAVRARRPGLEGLLAGVDNNLVELEAARRVEKEALARLREQAARVGTQVEEAAEGVLRALLAQKQEVLGQLRAHVEAAEEAARERLAELEGREQVARAAAAFARRVLSLGREAEILSLEGAIAQRLRQLQGCPWAPGPAPCLLPQLELHPGLLDKNCHLLRLSFEEQQPQKDGGKDGAGTQGGEESQSRREDEPKTERQGGVQPQAGDGAQTPKEEKAQTTREEGAQTLEEDRAQTPHEDGGPQPHRGGRPNKKKKFKGRLKSISREPSPALGPNLDGSGLLPRPIFYCSFPTRMPGDKRSPRITGLCPFGPREILVADEQNRALKRFSLNGDYKGTVPVPEGCSPCSVAALQSAVAFSASARLYLINPNGEVQWRRALSLSQASHAVAALPSGDRVAVSVAGHVEVYNMEGSLATRFIPGGKASRGLRALVFLTTSPQGHFVGSDWQQNSVVICDGLGQVVGEYKGPGLHGCQPGSVSVDKKGYIFLTLREVNKVVILDPKGSLLGDFLTAYHGLEKPRVTTMVDGRYLVVSLSNGTIHIFRVRSPDS
binding [1]: binds

B2: NES peptide (173–182 aa of TIRR) (peptide, UniProt Q9BRJ7 173-182)
peptide: LLFALKVLNM
binding [2]: binds
